PubChem BioAssay AID743121 – NCATS, 2013
Aim: 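Knock-downs that sensitise breast cancer cells to camptothecin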 (primary screen). System: MDA-MB-231 cells, a human breast cancer line. Reagent: single siRNA against human genes, 20 nM siRNA (0.8 pmol per well). Timing: 120 h (drug added 48 h after transfection, read 72 h later). Treatment: camptothecin 20 nM (about EC30) for 72 h; vehicle 0.1% DMSO in parallel plates. Measured: 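Cell viability by ATP luminescence (CellTiter-Glo) as % of non-targeting siRNA wells, and the log2 ratio of viability without drug over viability with camptothecin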. Scale: log2 vehicle/camptothecin viability: higher = stronger sensitisation to camptothecin; viability with camptothecin: higher = more viable cells. Units: viability with camptothecin in % of control. Call rule: 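Active genes have an RSA gene-level p-value below 0.001, computed from the ratios of their separate siRNAs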.
Here is an unselected part of about 26,000 reagents tested. In the full data, 167 (0.63%) got an active call. 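Calls are per gene from RSA p-values that are not deposited; an individual active-marked siRNA can sensitise only weakly.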 The numbers tell different reagents against one gene apart. Not all columns of the deposit are shown.

How did the screen score MAST2 (microtubule associated serine/threonine kinase 2) #1?
log2 vehicle/camptothecin viability: 0.014; viability with camptothecin: 81.3; call: inactive

What did the screen give for MAST2 (microtubule associated serine/threonine kinase 2) #2?
log2 vehicle/camptothecin viability: -0.396; viability with camptothecin: 93.6; call: inactive

With MAST2 (microtubule associated serine/threonine kinase 2) #3, what does the deposit list?
log2 vehicle/camptothecin viability: 0.243; viability with camptothecin: 52.5; call: inactive

What did the screen give for MAST2 (microtubule associated serine/threonine kinase 2) #4?
log2 vehicle/camptothecin viability: 0.19; viability with camptothecin: 46.8; call: inactive

Which result is listed for SLC6A7 #1?
log2 vehicle/camptothecin viability: 0.43; viability with camptothecin: 68.3; call: inactive

With SLC6A7 #2, what was measured?
log2 vehicle/camptothecin viability: -0.213; viability with camptothecin: 56.8; call: inactive

What is on record for SLC6A7 #3?
log2 vehicle/camptothecin viability: -0.235; viability with camptothecin: 99.6; call: inactive

For SLC6A7 #4, how do the results read?
log2 vehicle/camptothecin viability: 0.619; viability with camptothecin: 42.2; call: inactive

How did the screen score SRSF9 (serine and arginine rich splicing factor 9) #1?
log2 vehicle/camptothecin viability: -0.154; viability with camptothecin: 116; call: inactive

For SRSF9 (serine and arginine rich splicing factor 9) #2, how do the results read?
log2 vehicle/camptothecin viability: 0.673; viability with camptothecin: 31.2; call: inactive

With SRSF9 (serine and arginine rich splicing factor 9) #3, how do the results read?
log2 vehicle/camptothecin viability: 0.24; viability with camptothecin: 74.2; call: inactive

How did the screen score SRSF9 (serine and arginine rich splicing factor 9) #4?
log2 vehicle/camptothecin viability: -0.183; viability with camptothecin: 94.5; call: inactive

What is on record for MRTO4 (MRT4 homolog, ribosome maturation factor) #1?
log2 vehicle/camptothecin viability: 0.0445; viability with camptothecin: 61.8; call: inactive

With MRTO4 (MRT4 homolog, ribosome maturation factor) #2, what was measured?
log2 vehicle/camptothecin viability: -0.175; viability with camptothecin: 80.8; call: inactive

With MRTO4 (MRT4 homolog, ribosome maturation factor) #3, what was measured?
log2 vehicle/camptothecin viability: -0.329; viability with camptothecin: 59.8; call: inactive

For MRTO4 (MRT4 homolog, ribosome maturation factor) #4, what does the deposit list?
log2 vehicle/camptothecin viability: 0.281; viability with camptothecin: 56.3; call: inactive

Copied from the entries so far (2 entries):
SRSF9 (serine and arginine rich splicing factor 9) #2 — log2 vehicle/camptothecin viability: 0.673; viability with camptothecin: 31.2; call: inactive
SRSF9 (serine and arginine rich splicing factor 9) #3 — log2 vehicle/camptothecin viability: 0.24; viability with camptothecin: 74.2; call: inactive

Further entries follow:
What is on record for P2RY10 (P2Y receptor family member 10) #1?
log2 vehicle/camptothecin viability: -0.192; viability with camptothecin: 102; call: inactive

For P2RY10 (P2Y receptor family member 10) #2, what was measured?
log2 vehicle/camptothecin viability: -0.381; viability with camptothecin: 99.8; call: inactive

With P2RY10 (P2Y receptor family member 10) #3, what was measured?
log2 vehicle/camptothecin viability: 0.0349; viability with camptothecin: 51.5; call: inactive

With P2RY10 (P2Y receptor family member 10) #4, how do the results read?
log2 vehicle/camptothecin viability: -0.521; viability with camptothecin: 63.6; call: inactive

With RELB (RELB proto-oncogene, NF-kB subunit) #1, what does the deposit list?
log2 vehicle/camptothecin viability: -0.258; viability with camptothecin: 77; call: inactive

With RELB (RELB proto-oncogene, NF-kB subunit) #2, how do the results read?
log2 vehicle/camptothecin viability: 0.211; viability with camptothecin: 25.9; call: inactive

With RELB (RELB proto-oncogene, NF-kB subunit) #3, what was measured?
log2 vehicle/camptothecin viability: -0.239; viability with camptothecin: 57.3; call: inactive

With RELB (RELB proto-oncogene, NF-kB subunit) #4, how do the results read?
log2 vehicle/camptothecin viability: 0.146; viability with camptothecin: 71.7; call: inactive

What did the screen give for CD2AP (CD2 associated protein) #1?
log2 vehicle/camptothecin viability: -0.204; viability with camptothecin: 92.2; call: inactive

How did the screen score CD2AP (CD2 associated protein) #2?
log2 vehicle/camptothecin viability: -0.443; viability with camptothecin: 115; call: inactive

For CD2AP (CD2 associated protein) #3, what was measured?
log2 vehicle/camptothecin viability: 0.1; viability with camptothecin: 90; call: inactive

How did the screen score CD2AP (CD2 associated protein) #4?
log2 vehicle/camptothecin viability: -0.237; viability with camptothecin: 99; call: inactive

How did the screen score EBAG9 (estrogen receptor binding site associated antigen 9) #1?
log2 vehicle/camptothecin viability: -0.534; viability with camptothecin: 103; call: inactive

Which result is listed for EBAG9 (estrogen receptor binding site associated antigen 9) #2?
log2 vehicle/camptothecin viability: 0.136; viability with camptothecin: 90.9; call: inactive

What is on record for EBAG9 (estrogen receptor binding site associated antigen 9) #3?
log2 vehicle/camptothecin viability: -0.278; viability with camptothecin: 71.3; call: inactive

With EBAG9 (estrogen receptor binding site associated antigen 9) #4, what was measured?
log2 vehicle/camptothecin viability: 0.163; viability with camptothecin: 52.8; call: inactive

With GCG (glucagon) #1, how do the results read?
log2 vehicle/camptothecin viability: 0.333; viability with camptothecin: 67.8; call: inactive

With GCG (glucagon) #2, what does the deposit list?
log2 vehicle/camptothecin viability: -0.11; viability with camptothecin: 105; call: inactive

What is on record for GCG (glucagon) #3?
log2 vehicle/camptothecin viability: -0.396; viability with camptothecin: 95.9; call: inactive

With GCG (glucagon) #4, what does the deposit list?
log2 vehicle/camptothecin viability: -0.069; viability with camptothecin: 97.7; call: inactive
